From ChEMBL document CHEMBL3988442, “University of Dundee, Small-Polar-MMV Screening Library” (2021).

Each number is a percent effect as filed. The record does not define 0% and 100%; most values in the screen are far below 50% and negative numbers occur (in some assays of this library far below -100). The compounds are a random part of those screened.

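Whole-parasite assay of Trypanosoma brucei over 72 hours; the read-out is not stated. Concentration: 30 µM. Higher reads as stronger inhibition (inferred: compounds with an IC50 in retests scored well above the rest). Values scatter widely below zero; nearly all retest evidence comes from the higher of the two concentrations used. About 64,000 compounds were tested under these conditions; 1.5% (about 940) showed 50% or more at least once.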

SMILES	effect
[H][C@]12CC[C@]([H])(CN(C(=O)CCc3nc(Cl)n[nH]3)C1)N(CC=C(C)C)C2=O	-4.584
CNCc1ccc([C@@H]2CN(C(C)=O)C[C@H]2C(=O)N(C)C)cc1.Cl	-5.387
c1ccc(-c2nnc(CNCC3CCCN3c3cccnn3)o2)cc1 (configuration not stated)	-41.79
COc1ccc2c(c1)C(NCCc1ncc(C)s1)CCCO2 (configuration not stated)	-3.148
CNc1cccc(C2CCCN(C(=O)c3cccnc3)C2)n1 (configuration not stated)	0.2565
F[C@@H]1CN(Cc2cccnc2)C[C@@H]1OCc1nc2ccccc2[nH]1	13.99
CCc1cc(O)nc(C2CCCN2C(=O)c2cccnc2)n1 (configuration not stated)	-36.08
CC(C)C(C)N(C)C(=O)COc1ccccc1C#N (configuration not stated)	-23.27
COc1ccc(-c2noc(CN3CCCC3Cn3cccn3)n2)cc1 (configuration not stated)	43.68
CC(C)n1nc2c(cc1=O)CN(Cc1nc(-c3ccoc3)no1)CC2	-24.77
Cc1nn(C)c(C)c1CCC(=O)Nc1nnc(C2CC2)s1	-23.95
CC1CCN(CCCNS(=O)(=O)c2cccc(F)c2)CC1.Cl	-27.94
O=C1CNc2ncnc(Nc3cnn(Cc4cccc(F)c4)c3)c2N1	-10.63
O=C(COc1cccc(Cl)c1)N1CCOCC1c1ncon1 (configuration not stated)	-40.67
CCc1nn(C)c(Cl)c1CN(CCOC)Cc1cnn(C)c1	-84.07
[H][C@@]12CCN(C[C@@H]1C(=O)NC1CCCCC1)[C@@H](Cn1cc(CNC)nn1)C2	-19.95
O=C(O)C(F)(F)F.O=C(O)C(F)(F)F.[H][C@@]12CN(Cc3ccoc3)C[C@]1([H])C(=O)N(Cc1cccnc1)C2	-20.16
CC(C)(C)c1nc(CNC2CCCN(c3cccnn3)C2)no1 (configuration not stated)	-39.69
CC1c2ncc(CN3CCN(C)CC3)n2CCN1Cc1ccc(F)cc1.O=C(O)C(F)(F)F.O=C(O)C(F)(F)F.O=C(O)C(F)(F)F (configuration not stated)	-44.2
COc1c(C2CCCN2C(=O)c2ccnc(N(C)C)c2)c(C)nn1C (configuration not stated)	-23.18
COCc1ncn2c1CN(S(=O)(=O)Cc1ccc(C)cc1)CC2.O=C(O)C(F)(F)F	-30.54
CN(C)C(=O)Cc1nc(CN2CCCC2Cn2cncn2)cs1 (configuration not stated)	-52.72
O=C(c1occc1CN1C(=O)Cc2ccccc21)N1CCCCCC1	18.35
Cc1nc(C)n(C2CCCN(C(=O)CCCOc3ccccc3)C2)n1 (configuration not stated)	17.94
COc1ccc(C)cc1NC(=O)Nc1cnc(N2CCCC2)nc1	-9.808
[H][C@]12CC[C@]([H])(CN(Cc3ccccc3)C1)N(C(=O)c1ccc(F)cc1F)C2	13.53
CCCS(=O)(=O)NC(=O)c1cc(C)n(-c2ccccc2)n1	-66.08
CC(C)CC(C)N(C)C(=O)CCn1cccn1 (configuration not stated)	12.02
CCC[C@H]1CN(C(=O)c2ccc3[nH]c(CO)nc3c2)C[C@@H]1N	-30.6
O=C(c1cccc(OCc2cscn2)c1)N1CCOCC1	6.725
CCS(=O)(=O)N1CCC(OC)c2ccccc2N(CC(=O)NC)C(=O)C1 (configuration not stated)	-33.2
O=C1CC2(CCN(Cc3ccoc3)CC2)CN1Cc1cc(F)cc(F)c1	-15.51
CCCn1cc(C(=O)N2CCOC(c3nc(-c4cccs4)no3)C2)cn1 (configuration not stated)	19.04
Cc1cccc(C(=O)N(C)Cc2cc(Br)cs2)n1	23.17
COCC(=O)N1CCc2nc(C(=O)N(C)C)sc2CC1	-71.06
O=C(O)C(F)(F)F.O=S(=O)(C1CC1)N1CC[C@H](OCC2CC2)[C@@H]1Cc1cccnc1	-5.494
COCCS(=O)(=O)NCC(C)c1cccc(C)c1 (configuration not stated)	-8.114
[H][C@@]12CCNCC1OCCN2C(=O)c1ccccc1 (some centres not stated)	-86.15
CC1CCC(NCCNC(=O)c2cccs2)CC1 (configuration not stated)	-2.177
COc1ccc2c(c1)CC(C1CCOCC1)N(C(=O)c1ccnn1C)C2 (configuration not stated)	5.677
CNC(=O)NC(=O)CN(CC(C)O)c1ccccc1 (configuration not stated)	2.356
Cc1ccc(N2CC[C@H](O)[C@@H]2Cc2cnn(C)c2)nn1	-58.38
[H][C@@]12CN(Cc3cccc(C)n3)C[C@]1([H])OCCN2C	-31.94
COCc1nc(C(=O)N(Cc2ccccc2)CC(C)C(=O)O)cs1 (configuration not stated)	12.3
O=C(Nc1ccccn1)C1CC(=O)N(Cc2ccccn2)C1 (configuration not stated)	-8.332
O=C1c2cccnc2OC(CN2CCOCC2)CN1C1CCC1 (configuration not stated)	-6.455
O=C(Cc1cccs1)N1CCOCC1CO (configuration not stated)	5.732
CCOCCC(=O)N1CCCC(CO)(CC2CC2)C1 (configuration not stated)	8.848
CN(CC1CCOCC1)C(=O)NCCCN1CCCCC1	-7.732
CN(C)c1ccccc1CN1CCC(N2CCCC2=O)CC1	1.675
C=C(C)COc1cccc(CN(C)C(C)c2ccncn2)c1 (configuration not stated)	2.305
CN(C)Cc1noc2c1CN(Cc1ccsc1)CC2.O=C(O)C(F)(F)F.O=C(O)C(F)(F)F	-40.18
Cn1cc(-c2cnc(N3CCCC3)nc2)cc1C(=O)N1CCOCC1	-29.42
CCNc1nnc(CCn2nc(C)c(Br)c2C)s1	-26.5
[H][C@@]12CN(C(=O)c3cnccn3)C[C@]1([H])C(=O)N(Cc1cccc(C)c1)C2	-0.2663
CCSc1cncc(N2CCC(NC(=O)C3CCCCC3)CC2)n1	77.16
O=C(COc1ccccc1)NCCNC(=O)c1scnc1Cl	15.45
CCn1ccnc1CN1CCN(CCOc2ccccc2C#N)CC1	13.5
O=C(Cn1cnnn1)NCC1(O)CCCc2ccccc21 (configuration not stated)	-28.77
Cc1cnn(CC2CCCCN2C(=O)c2ccc3nnc(C)n3c2)c1 (configuration not stated)	-11.5
[H][C@@]12CCCCN(Cc3ccccc3)[C@]1([H])CN(c1ncccn1)C2	-4.123
CCc1cccc(N2CCC(NC(=O)c3ccc(=O)[nH]n3)CC2)c1	14.63